Laboratory results as given in the supplement of paper PMC10338343.
± gives the standard deviation. The entries are a selection whose mix differs from that of the whole data set. Many entries were measured with a wide error. Some of the results follow.

Assays:
[1] = tested on: EfPiwi piRISC loaded with L1MC piRNA (26 nt); experiment: pre-steady-state target cleavage rate (min^-1); guide: L1MC piRNA 5'p-UAACUAAAUACUAUGCAAGCUGUAGG; higher = faster piRNA-guided slicing of the target
Method in brief: (§1)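 Cleave-'n-Seq: 1 nM active affinity-purified piRISC with one synthetic guide and 0.1 nM transcribed, DNA-blocked target RNA library were mixed, with or without 500 nM GTSF1 partner protein, in HEPES–potassium acetate buffer at 33 °C for 0–8 or 0–960 min. Uncleaved targets were sequenced and normalised to depth and to weakly complementary targets, three trials were pooled, and k3 was capped at 0.0001 min^-1. The pre-steady-state cleavage rate was fitted […].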

[2] = tested on: MILI (PIWIL2) piRISC loaded with L1MC piRNA (26 nt); experiment: pre-steady-state target cleavage rate (min^-1); MIWI and MILI are mouse PIWI proteins and EfPiwi is from a freshwater sponge; tags in brackets are library labels; higher = faster piRNA-guided slicing of the target; conditions: guide: L1MC piRNA 5'p-UAACUAAAUACUAUGCAAGCUGUAGG
Method in brief: as §1

[3] = auxiliary factor: 500 nM Ephydatia muelleri Gtsf1
[4] = auxiliary factor: none (no Gtsf1)
[5] = auxiliary factor: 500 nM mouse GTSF1
[6] = auxiliary factor: none (no GTSF1)

Sequence | pre-steady-state target cleavage rate [1, 3] | pre-steady-state target cleavage rate [1, 4] | pre-steady-state target cleavage rate [2, 5] | pre-steady-state target cleavage rate [2, 6]
UCCUGGAUGAGCAUGCAUAGUAAUUAGUUA | 0.00173 ± 0.0034 | 0.0024 ± 0.006 |  | 
UCCUGGUAGAGCUAGCAUAGUAUUUAGUUA | 0.00968 ± 0.0033 | 0.00173 ± 0.0067 |  | 
UCCUGGAUGUCGAAGCAUAGUAUUUUCAUA | 0.000259 ± 0.0081 | 0.000458 ± 0.013 |  | 
UCCUGGUACAGCAUGCAUAGUAUUUAGAUA | 0.00412 ± 0.0025 | 0.000531 ± 0.015 |  | 
UCCUGCUACUGCUAGCAUAGUAUUUAGUUA | 0.0129 ± 0.0034 | 0.000765 ± 0.0073 |  | 
UCCUGGAUGUGCUAGCAUAGUUUUUAGUUA | 0.000322 ± 0.021 | 0.000318 ± 0.033 |  | 
UCCUGGAUGUGCCUUGCAUAGUAUUUAGUUA | 0.0886 ± 0.031 | 0.00076 ± 0.0091 |  | 
UCCUGGAACAGCUAGCAUAGUUUUUAGUUA | 0.00164 ± 0.0032 | 0.000334 ± 0.022 |  | 
UCCUGGAUGAGCUUGCAAUGUAUUUAGUUA | 0.00266 ± 0.0045 | 0.000709 ± 0.016 |  | 
UCCUGGAACAGCUAUGCAUAGUAUUUAGUUA | 0.0102 ± 0.0029 | 0.00046 ± 0.018 |  | 
UCCUGGAUGAGGUUGCUUAGUAUUUAGUUA | 0.00088 ± 0.0075 | 0.000585 ± 0.018 |  | 
UCCUGGAUGAGCUUGCAUAGUAUAUUGUUA | 0.00265 ± 0.0033 | 0.000423 ± 0.021 |  | 
UCCUGGAACAGCAUGCUUAGUAUUUAGUUA | 0.00591 ± 0.0025 | 0.0015 ± 0.0063 |  | 
UCCUGGAUCAGCUUGCAUAGCAUUUAGUUA | 0.00774 ± 0.0021 | 0.00546 ± 0.0038 |  | 
UCCUGGUACAGUUUGCAUAGUAUUUAGUUA | 0.00421 ± 0.0025 | 0.000612 ± 0.021 |  | 
UCCUGGAUGUGCUUGGAUAGUAUUUAGAUA | 0.000698 ± 0.0045 | 0.000671 ± 0.017 |  | 
UCCUGGAUGAGCUUGCAUAGUAUUUGUUA | 0.00242 ± 0.0028 | 0.000692 ± 0.012 |  | 
UCCUGGAACAGCUUGCAUAGUUUUAAGUUA | 0.00153 ± 0.0027 | 0.00123 ± 0.01 |  | 
UCCUGGAAGAGCUUGCAUAGUAUUUAGAUA | 0.00519 ± 0.0023 | 0.000839 ± 0.011 |  | 
UCCUGGUAGAGCUUGCAUAGUAUUAAGUUA | 0.00385 ± 0.0022 | 0.0012 ± 0.0099 |  | 
UCCUGGAUGUGCUUGAAUAGUAUUUAGUUA | 0.00214 ± 0.0034 | 0.000837 ± 0.013 |  | 

Sequence | pre-steady-state target cleavage rate [1, 3] | pre-steady-state target cleavage rate [1, 4] | pre-steady-state target cleavage rate [2, 5] | pre-steady-state target cleavage rate [2, 6]
UCCUGCUACAGCUUGCAUAGUUUUUAGUUA | 0.00538 ± 0.0021 | 0.000612 ± 0.0075 |  | 
UCCUGGAACAGCUUGCAUAGUACUUAGUUA | 0.0218 ± 0.0069 | 0.00157 ± 0.0077 |  | 
UCCUGGAUCUGCUUGCAUAGUAUUUACUUA | 0.00136 ± 0.0038 | 0.000323 ± 0.026 |  | 
UCCUGGAUCACCUUGCAUAGUUUUUAGUUA | 0.00185 ± 0.0052 | 0.000555 ± 0.015 |  | 
UCCUGCUUCAGCUUGCAUAGUAUUAAGUUA | 0.00492 ± 0.0016 | 0.000492 ± 0.011 |  | 
UCCUGGAUCAGCUUGCAUAGUAUUUUAGUUA | 0.0214 ± 0.0071 | 0.0111 ± 0.0065 |  | 
UCCUGGAUGUGCUAGCAUUGUAUUUAGUUA | 0.000393 ± 0.012 | 0.000282 ± 0.025 |  | 
UCCUGCUACAGCUUCGAUAGUAUUUAGUUA | 0.00756 ± 0.0026 | 0.00116 ± 0.0055 |  | 
UCCUGCUACAGCUUACAUAGUAUUUAGUUA | 0.0151 ± 0.0038 | 0.000684 ± 0.0091 |  | 
UCCUGGAAGACCUUGCAUAGUAUUUAGUUA | 0.00668 ± 0.003 | 0.000565 ± 0.018 |  | 
UCCUGGUACAGCAUGCAUACUAUUUAGUUA | 0.00483 ± 0.0019 | 0.00101 ± 0.01 |  | 
UCCUGGUACAGCUGCAUAGUAUUUAGUUA | 0.00843 ± 0.0034 | 0.000524 ± 0.016 |  | 
UCCUGGAUCAGCUUUCAUAGUAUUUAGUUA | 0.0103 ± 0.0032 | 0.000585 ± 0.016 |  | 
UCCUGGAUGAGCAUGCAUAGUAUUUACUUA | 0.00139 ± 0.0035 | 0.000328 ± 0.028 |  | 
UCCUGGAUCAGCUUGCAUAGUAUUCUAGUUA | 0.000839 ± 0.0096 | 0.00123 ± 0.0067 |  | 
UCCUGGUACAGCUUGCAUAGUAUUUAGGUUA | 0.00216 ± 0.0033 | 0.000181 ± 0.039 |  | 
UCCUGGAUGACCUUGCAUAGUAUUUAGUAA | 0.00129 ± 0.0046 | 0.000657 ± 0.015 |  | 
UCCUCCAACAGCAUGCAUAGUAUUUAGUUA |  |  | 0.282 ± 0.016 | 
UCCUGCUACAGCCUUGCAUAGUAUUUAGUUA | 0.0116 ± 0.0041 | 0.000742 ± 0.0079 | 0.308 ± 0.025 | 
UCCUCCAACAGCUUGCAUAGUAUUUACAAA | 0.00355 ± 0.0024 | 0.000498 ± 0.015 |  | 0.00193 ± 0.0036
UCCUGGAACAGCUUGCAUAGUAUUUAGGUA | 0.00203 ± 0.0035 | 0.000763 ± 0.012 |  | 0.00216 ± 0.0032

Sequence | pre-steady-state target cleavage rate [1, 3] | pre-steady-state target cleavage rate [1, 4] | pre-steady-state target cleavage rate [2, 5] | pre-steady-state target cleavage rate [2, 6]
UCCUGGAUGUCGAAGCUUAGUAUUUAGUAA | 0.000149 ± 0.032 | < 0.0001 |  | 0.000203 ± 0.024
UCCUGCUACAGCUUGCAUAGUAUUUAAUUA | 0.00612 ± 0.0025 | 0.000516 ± 0.018 |  | 0.00244 ± 0.0044
UCCUGGAACAGCUAGCAUAGUAUUUUGUUA | 0.00465 ± 0.003 | 0.000247 ± 0.036 |  | 0.00222 ± 0.0029
UCCUGGAACACCUUGCAUAGUAUUUAGUAA | 0.00217 ± 0.0026 | 0.000452 ± 0.015 |  | 0.00248 ± 0.0034
UCCUGGAUGAGCUUGCAUAGUAUUUUCUUA | 0.00195 ± 0.0025 | 0.000488 ± 0.015 |  | 0.00148 ± 0.0057
UCCUGGAUGUGCUUGCAUAGUUAAUAGAAA | 0.000372 ± 0.011 | 0.000427 ± 0.015 |  | 0.000726 ± 0.009
UCCUCCAUGAGCUUGCAUAGUAUUUACAAA | 0.00312 ± 0.0024 | 0.000251 ± 0.015 |  | 0.000912 ± 0.0064
UCCUGGAACAGCUUGCAUUGUAUUUACUUA | 0.00192 ± 0.0028 | 0.000367 ± 0.022 |  | 0.00207 ± 0.0035
UCCUGGAUGAGCUUGCAUUCUAUUUAGUUA | 0.00167 ± 0.0028 | 0.000265 ± 0.028 |  | 0.00121 ± 0.0046
UCCUGGUACUGCUUGCAUAGUAUUUACUUA | 0.00185 ± 0.0033 | 0.000565 ± 0.014 |  | 0.00118 ± 0.0065
UCCUGGUACAGCUUGCUUAGUAUUUACUUA | 0.00185 ± 0.0042 | 0.000335 ± 0.021 |  | 0.00257 ± 0.003
UCCUGGAACAGCUUGGAUAGUUUUUAGUUA | 0.00298 ± 0.0022 | 0.000764 ± 0.012 |  | 0.00319 ± 0.0033
UCCUGGUACAGCUUGCAUUGUAUUUAGAUA | 0.00292 ± 0.0018 | 0.000281 ± 0.038 |  | 0.00193 ± 0.0053
UCCUGCUACUGCUUGCAUAGUAUUUAGUAA | 0.00464 ± 0.0016 | 0.000388 ± 0.013 |  | 0.00146 ± 0.0035
UCCUGGUACAGCUUGCAUAGUAUUGUAGUUA | 0.00235 ± 0.0028 | 0.000331 ± 0.028 |  | 0.00296 ± 0.004
UCCUGCUACAGCUUGCAUAGUAUAUACUUA | 0.00132 ± 0.0038 | 0.000552 ± 0.01 |  | 0.00139 ± 0.0053
UCCUGGAACACCUUGCAUACUAUUUAGUUA | 0.00273 ± 0.002 | 0.000442 ± 0.015 |  | 0.000705 ± 0.0086
UCCUGGAUGAGCUUGGAUAGUAUUUAGAUA | 0.00144 ± 0.0045 | 0.000307 ± 0.03 |  | 0.00118 ± 0.0046
UCCUGGAUGUGCUUGCAUUGUAUUUUGUUA | 0.00049 ± 0.0093 | 0.000147 ± 0.055 |  | 0.00215 ± 0.0042

Some of the entries above in another layout.
Sequence	pre-steady-state target cleavage rate [1, 3]	pre-steady-state target cleavage rate [1, 4]	pre-steady-state target cleavage rate [2, 5]	pre-steady-state target cleavage rate [2, 6]
UCCUGGUACAGCUUGCAUAGUAUUGUAGUUA	0.00235 ± 0.0028	0.000331 ± 0.028		0.00296 ± 0.004
UCCUGCUACAGCUUGCAUAGUAUAUACUUA	0.00132 ± 0.0038	0.000552 ± 0.01		0.00139 ± 0.0053
